For this assay, the target named is Candida glabrata metacaspase CgMCA-I (residues 1-392), wild type (Candida glabrata) (UniProt Q6FPX9). Description: SEC-SAXS; SAXS in SEC-coupled mode, Superdex S200 Increase 5/150, 10 mM HEPES pH 7.6, 300 mM NaCl, 1% glycerol, 10 mM CaCl2; sample at 9.6 mg mL^-1; both purified.

These are yes or no findings as the source states them, for the method shown.

B1: Candida glabrata metacaspase CgMCA-I (residues 1-392), wild type (enzyme, UniProt Q6FPX9 1-392)
chain: MYPGSGNYSYNNRPSMPPPGFNGDGQGYRQEYGNQYGGGYQQQQYQDQYQGENRGQYQGQYQDQPEYGRPPSGMVRPPSSIQQGNGQQFQYSQMTGRRKALLIGINYIGSKNALRGCINDAHNIFNYLTTYCGYRPEDIVMLTDDQREMVKIPLKENIIRAMQWLVKDAQPNDALFFHYSGHGGQTKDLDGDEEDGMDDVIYPVDFESVGPLIDDTMHDIMVKSLPQGARLTALFDSCHSGTVLDLPYTYSTKGVIKEPNMWKDVGSDGIQAAMAYATGNRSALFSSIGNMVSSVTKKQNVDRERVRQIKFSPADVIMLSGSKDNQTSADTFADGQNIGAMSHAFISVMTRQPQQSYLSLLQNLRNELAGKYSQKPQLSASHPIDVNLQFIM
B1: the binding entry was “no binding (tested: 9.6 mg mL^-1)”.
